A short description of the experiment: qHTS Assay to Find Inhibitors of Chronic Active B-Cell Receptor Signaling. To be noted: ABC-DLBCL IkBa-CBG/CBR reporter, luminescence ratio (green luciferase fused to IkBa over red control in TMD8 lymphoma cells), 4 h. In outline: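 Doxycycline induced both beetle luciferases in TMD8 lymphoma cells; IKK-driven degradation limits the IkappaBalpha-fused green signal, while red luminescence normalises for cell number and nonspecific effects. Compounds tested up to 46 uM, 4 hrs.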
A general note: Quantitative high-throughput screening tests each substance at several concentrations.

Setting [1] is: measured here: CBR red luminescence, cell number.
Setting [2] is: measured here: IkBa-CBG green luminescence.

Molecules are shown by their SMILES. Some of the results follow. Further columns of the screen follow, without active or inactive calls. The list favours compounds with an active or inconclusive main result. Words in brackets tell the shape of the fitted curve; partial curves, single points and poor fits give uncertain potencies.

Broadly, the AC50 is the midpoint of the concentration-response curve, whichever way the signal moves. Consider `CC(C)n1c(O)c(N=Nc2ccc(Cl)c(C(=O)O)c2)c2ccccc21`, for which, under setting [1], the AC50 was 35.5 µM [falling, single point]. Turning to `Cc1cc(/C=N/NC(=O)c2cccs2)c(C)n1-c1cnccn1`, the AC50 under setting [1] was 35.5 µM [falling, single point]. Still for that read-out and setting: to `CSCCC(NC(=O)COc1ccccc1)C(=O)N(C)Cc1cccc(F)c1` (configuration not stated) belongs 0.517 µM [rising, full curve, poor fit]; to `CC(C)CNc1cc(N2CCCC2)ccc1[N+](=O)[O-]`, 3.16 µM [falling, single point]; to `Cc1cccc(C(=O)NCC(=O)OCC(=O)N2CCN(S(=O)(=O)c3ccc(C)cc3C)CC2)c1`, 8.2 µM [rising, partial curve]. Take `COc1ccccc1NC(=S)NNC(=O)c1ccc(Cl)cc1Cl`: under setting [1], the AC50 is 29.1 µM [falling, single point]. On to `COc1cccc(CNC(=O)CCS(=O)(=O)c2cccc3nsnc23)c1`, for which, under setting [1], the AC50 was 4.11 µM [falling, partial curve, poor fit].

As for `O=C(c1ccc(Cl)cc1)c1cc(-c2ccccn2)c(N2CCOCC2)s1`, the AC50 under setting [1] is 14.1 µM [falling, single point]. `O=C(O)c1ccc(/C=N/Nc2ncc(C(F)(F)F)cc2Cl)cc1`: the concentration at half-maximal activity (AC50) under setting [1] is 2.24 µM [falling, partial curve, poor fit].

Regarding `O=C(NCc1ccccn1)c1ccc(Cl)c(S(=O)(=O)NCc2ccccc2)c1`, the AC50 under setting [1] was 0.0164 µM [rising, full curve, poor fit]. As for `O=C(CSc1ccccc1)N1CCN(c2ccccc2)CC1`, the AC50 under setting [1] is 2.91 µM [rising, single point].

As to `Cc1ccc(Nc2cccccc2=O)cc1`, under setting [1], the AC50 is 8.91 µM [rising, partial curve, poor fit]. On to `O=C(CSc1nnc(Nc2ccccc2F)s1)Nc1cccc(S(=O)(=O)N2CCCCC2)c1`, for which, under setting [1], the AC50 was 18.4 µM [falling, single point]. For the compound `Cc1cc(/C=N/NC(N)=S)c(C)n1-c1ccc(Cl)c(Cl)c1`, the AC50 by setting is: under setting [1], 23.1 µM [falling, single point]; under setting [2], 18.4 µM [falling, single point]. For the compound `O=C(Nc1nnc(-c2ccc(F)cc2)s1)c1ccco1`, the AC50 under setting [1] is 1.12 µM [falling, full curve, poor fit]. Same read-out and setting: for `CCS(=O)(=O)C(=C1Nc2ccccc2N1)S(=O)(=O)CC` the value was 29.1 µM [rising, partial curve, poor fit]. Take `O=C(N/N=C\c1cccc(OC(=O)c2ccco2)c1)c1ccc2c(c1)OCO2`: the AC50 under setting [1] was 1.3 µM [falling, full curve]. On to `Cc1c(C(=O)Nc2cccc([N+](=O)[O-])c2)cnn1-c1ccccc1`, for which the AC50 under setting [1] is 1 µM [rising, partial curve, poor fit]. On the same count and under the same terms, for `COc1ccccc1NC(=O)COC(=O)c1c[nH]c(=O)[nH]c1=O` the value was 6.31 µM [rising, single point]; for `CC(C)(C)C1C/C(=C/c2ccccn2)C(=O)/C(=C/c2ccccn2)C1` (configuration not stated), 7.94 µM [rising, partial curve, poor fit]; for `Clc1cccc(Cl)c1CON/C=N/c1ncnc2sccc12`, 1.64 µM [rising, full curve, poor fit]. In the case of `COc1ccc(OCC(=O)Nc2cccc(C(C)=O)c2)cc1`, under setting [1], the AC50 was 0.316 µM [rising, full curve, poor fit]. The same measure, in the same setting: for `O=C(NCc1ccccc1CN1CCCC1)c1cc2cc(Cl)ccc2o1` the value was 14.6 µM [falling, single point]; for `Cc1ccc(S(=O)(=O)N2CCCCC2)cc1C(=O)NCc1ccccn1`, 1.26 µM [rising, partial curve, poor fit].

In the case of `Cc1cc(C(=O)OCC(=O)Nc2cccc(S(=O)(=O)N3CCOCC3)c2)c(C)o1`, the half-maximal activity concentration (AC50) under setting [1] was 16.4 µM [falling, partial curve, poor fit]. With `Cc1ccc2nc(Cl)c(/C=N/NC(=O)c3ccccc3O)cc2c1`, the AC50 under setting [1] is 8.2 µM [falling, partial curve, poor fit]. Same read-out and setting: for `COc1ccc(C2CC(c3ccc(Cl)cc3)=NN2c2ccc(S(N)(=O)=O)cc2)cc1` (configuration not stated) the value was 9.2 µM [falling, partial curve]; for `CCCCNC(=O)c1onc(CSc2ccc(F)cc2)c1C(=O)O`, 35.5 µM [falling, single point]; for `COCCCn1c(C(=O)NCCC2=CCCCC2)cc2c(=O)n3ccccc3nc21`, 15.8 µM [rising, single point]. For `CCn1c(=O)c2sccc2n(Cc2cc(C(=O)OC)ccc2OC)c1=O`, the AC50 under setting [1] is 10 µM [rising, partial curve, poor fit]. In the case of `O=C(Cc1ccc([N+](=O)[O-])cc1)NNC(=O)c1ccc2c(c1)OCO2`, the AC50 under setting [1] was 3.16 µM [falling, full curve]. On to `Cc1coc2cc3oc(=O)c(Cc4ccccc4)c(C)c3cc12`, for which the AC50 under setting [1] is 18.4 µM [falling, single point]. Consider `COCCNc1ncnc2c1c(-c1ccccc1)cn2-c1cccc(Cl)c1`, for which the AC50 under setting [1] is 0.1 µM [rising, full curve, poor fit]. Take `N=c1c(-c2nc3ccccc3[nH]2)cc(C(=O)c2cccs2)nn1-c1ccccc1`: under setting [1], the AC50 is 0.00461 µM [falling, full curve, poor fit].

Consider `COc1ccc2c(c1)C(NC(C)=O)C(=O)N2CCc1ccccc1` (configuration not stated), for which, under setting [1], the AC50 was 35.5 µM [rising, single point]. On to `CC(C)N=C(NS(=O)(=O)c1ccccc1)C(Cl)(Cl)Cl`, for which the AC50 under setting [2] is 4.11 µM [falling, full curve]. Regarding `CC(C)(C)c1ccc(-c2noc(CCC(=O)N3CCOCC3)n2)cc1`, the AC50 under setting [1] is 35.5 µM [falling, single point]. For the compound `Cc1c(CCC(=O)N2CCC[C@H]2C(=O)O)c(=O)oc2c(C)c3oc4c(c3cc12)CCCC4`, the AC50 is, setting by setting: under setting [1], 31.6 µM [falling, single point]; under setting [2], 0.282 µM [falling, full curve, poor fit]. For the compound `O=S(=O)(N/N=C\c1cccn1-c1ccccc1)c1ccc2ccccc2c1`, under setting [1], the AC50 is 35.5 µM [falling, single point]. `Cc1cc(/C=N/NS(=O)(=O)c2ccc(F)c(Cl)c2)no1`: the AC50 under setting [1] was 5.62 µM [rising, single point].

The values above are taken from PubChem BioAssay AID493014 (National Center for Advancing Translational Sciences (NCATS), 2011).
